Source: patent publication US20080015224A1, “Nitroxide superoxide dismutase mimetics to treat extracellular superoxide dismutase deficiencies” (priority 2006, published 2008)

Chains of the proteins cited; added tags and fusions are not shown. Lines headed by an entry give the natural chain unless they say otherwise; changes in a name come on top.
UniProt P01019: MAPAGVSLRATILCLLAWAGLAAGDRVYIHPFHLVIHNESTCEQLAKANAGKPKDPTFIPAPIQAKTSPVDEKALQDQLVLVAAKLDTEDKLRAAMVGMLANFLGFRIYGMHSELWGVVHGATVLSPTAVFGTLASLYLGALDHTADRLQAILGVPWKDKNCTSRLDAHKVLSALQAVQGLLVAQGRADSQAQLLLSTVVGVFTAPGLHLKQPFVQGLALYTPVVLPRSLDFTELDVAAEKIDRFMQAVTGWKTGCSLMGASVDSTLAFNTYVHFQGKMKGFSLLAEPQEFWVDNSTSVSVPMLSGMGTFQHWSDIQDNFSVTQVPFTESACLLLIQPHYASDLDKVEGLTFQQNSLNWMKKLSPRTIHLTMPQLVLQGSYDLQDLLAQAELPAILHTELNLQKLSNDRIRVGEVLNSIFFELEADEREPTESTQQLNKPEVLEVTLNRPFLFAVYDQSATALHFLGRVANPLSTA

Test system: kidney cortex of EC-SOD +/+ and −/− mice
Experiment: SOD activity in kidneys of Ang II-infused mice (chemiluminescence)
Format: in vivo, mouse
Conditions: Ang II 400 ng/kg per minute

angiotensin II (DRVYIHPF; Angiotensin-2; UniProt P01019 25-32, looked up) [Ang II, pressor peptide infused subcutaneously by osmotic minipump]
SOD activity in the kidneys of Ang II-infused mice (EC-SOD +/+): 8.8±1.2 U/mg protein^−1 | SOD activity in the kidneys of Ang II-infused mice (EC-SOD −/−): 13.7±1.6 U/mg protein^−1
